Measurements taken from publication PMC7949164.
No constants are given. Whether binding was seen depends on the method and setting. In cells and extracts the contact can be indirect. Some results given as binding are weak or reduced against the parent protein; the word gives no strength. Where a sequence is shown, tags or fusion partners need not be part of it.

Protein sequences, listed by entry. Tags and fused reporters are not part of them.
UniProt P29067: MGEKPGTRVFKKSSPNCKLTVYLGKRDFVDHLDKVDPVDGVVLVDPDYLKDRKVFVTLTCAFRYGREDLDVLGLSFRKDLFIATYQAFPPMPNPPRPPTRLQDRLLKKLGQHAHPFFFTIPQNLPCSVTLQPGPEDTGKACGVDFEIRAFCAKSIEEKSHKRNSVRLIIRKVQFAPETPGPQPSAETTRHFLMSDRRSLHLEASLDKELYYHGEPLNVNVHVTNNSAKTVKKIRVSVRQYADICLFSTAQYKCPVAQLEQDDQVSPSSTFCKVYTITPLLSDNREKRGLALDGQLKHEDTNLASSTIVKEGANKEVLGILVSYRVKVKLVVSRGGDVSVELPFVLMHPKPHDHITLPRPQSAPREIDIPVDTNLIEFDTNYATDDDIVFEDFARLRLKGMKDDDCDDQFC

Assays:
[1] = biological target: T1, mouse Ccr1l1 (Ccr1-like 1) with a C-terminal renilla luciferase variant 8 (Rluc8) reporter (mouse) (UniProt P51676); experiment: FRET or BRET; 293T cells cotransfected with beta-arrestin2 mYFP and receptor-Rluc8 (50 or 100 ng plasmid) or empty pcDNA-Rluc8; coelenterazine h 5 uM; buffer alone or 100 nM Ccl3, Ccl9/10 or Ccl22; net BRET (YFP/Rluc8) recorded over time
T1 sequence: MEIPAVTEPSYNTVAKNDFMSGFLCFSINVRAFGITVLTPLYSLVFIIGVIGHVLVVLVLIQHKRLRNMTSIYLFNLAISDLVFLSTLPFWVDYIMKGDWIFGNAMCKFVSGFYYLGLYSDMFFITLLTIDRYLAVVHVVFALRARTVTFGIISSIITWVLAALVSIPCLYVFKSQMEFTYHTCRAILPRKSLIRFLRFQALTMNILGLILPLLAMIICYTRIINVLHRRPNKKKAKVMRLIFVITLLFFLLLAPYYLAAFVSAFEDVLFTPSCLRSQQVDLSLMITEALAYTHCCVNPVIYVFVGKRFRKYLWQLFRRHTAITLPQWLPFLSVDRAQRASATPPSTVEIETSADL

[2] = biological target: T2, mouse Ccr1 with a C-terminal renilla luciferase variant 8 (Rluc8) reporter (mouse) (UniProt P51675); experiment: as above
T2 sequence: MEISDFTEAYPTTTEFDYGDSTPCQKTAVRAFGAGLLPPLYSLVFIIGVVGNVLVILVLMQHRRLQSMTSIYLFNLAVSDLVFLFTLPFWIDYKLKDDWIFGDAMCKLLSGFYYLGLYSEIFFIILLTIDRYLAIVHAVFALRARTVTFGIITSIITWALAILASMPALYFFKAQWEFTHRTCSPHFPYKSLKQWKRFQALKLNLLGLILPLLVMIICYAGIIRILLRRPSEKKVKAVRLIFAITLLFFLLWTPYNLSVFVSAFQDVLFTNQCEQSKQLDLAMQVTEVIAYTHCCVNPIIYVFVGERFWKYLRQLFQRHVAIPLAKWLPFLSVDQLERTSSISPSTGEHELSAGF

binding [1]: no binding
binding [2]: binds
Substance: beta-arrestin2 mYFP (from UniProt P29067 1-410)
